The reference is the same well before dosing, and untreated signal decays as well.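 Labels refer to human fibroblasts, largely primary: uterine (C12385, HUF), lung (H6013), bone (Hs27A), adrenal (HADF), skin (WS1), plus mammary HMF and breast cancer-associated Hs343T. Cancer lines are basal-like or mesenchymal-like triple-negative breast cancer. The paper counts as hits responses shifting over 3x the replicate standard deviation. The tissue of the other fibroblasts is not given here.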
System: MDAMB436
Experiment: relative JC-1 red fluorescence (viability) vs pre-drug, coculture with fibroblast (fraction); higher = more viable cancer cells
Experimental: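 JC-1 labelled TNBC cells cocultured 1:1 (1,500 cells each) with CellTrace Violet stained primary or stromal fibroblasts in 384-well plates in FluoroBrite medium, treated with one of 42 anticancer drugs at 0.1, 1, 10 or 100 uM. JC-1 red fluorescence (mitochondrial integrity in cancer cells only) was read by plate reader every 8 h for 72 h. Values are normalised to each well's pre-drug value. The stock of one drug was tenfold lower, so its dose labels may be too high.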

O=C(O)C(=O)O.[NH-][C@@H]1CCCC[C@H]1[NH-].[Pt+2] [Oxaliplatin]
relative JC-1 red fluorescence
Conditions	8 h	16 h	24 h	32 h	40 h	48 h	56 h	64 h	72 h
0.1 µM, coculture fibroblast: C12385	0.795	0.763	0.754	0.689	0.66	0.6565	0.652	0.6441	0.6464
0.1 µM, coculture fibroblast: H6013	0.823	0.825	0.829	0.844	0.839	0.885	0.849	0.841	0.795
0.1 µM, coculture fibroblast: H6019	0.74903	0.692	0.675	0.606	0.572	0.558	0.531	0.5	0.47
0.1 µM, coculture fibroblast: H6076	0.764	0.765	0.825	0.816	0.869	0.869	0.918	0.925	0.918
0.1 µM, coculture fibroblast: H6231	0.691	0.662	0.715	0.65	0.658	0.637	0.642	0.637	0.622
0.1 µM, coculture fibroblast: HADF	0.793	0.764	0.744	0.727	0.73	0.765	0.71	0.706	0.676
0.1 µM, coculture fibroblast: HCFa	0.749	0.707	0.68	0.661	0.655	0.683	0.626	0.627	0.569
0.1 µM, coculture fibroblast: HCPF	0.708	0.676	0.714	0.662	0.672	0.661	0.667	0.659	0.662
0.1 µM, coculture fibroblast: HHSteC	0.846	0.85	0.843	0.81	0.818	0.831	0.771	0.7669	0.7099
0.1 µM, coculture fibroblast: HMF	0.726	0.698	0.705	0.675	0.687	0.667	0.699	0.686	0.681
0.1 µM, coculture fibroblast: HPFa	0.905	0.916	0.929	0.907	0.931	0.895	0.905	0.826	0.85
0.1 µM, coculture fibroblast: HUF	0.814	0.763	0.756	0.694	0.659	0.652	0.637	0.638	0.639
0.1 µM, coculture fibroblast: Hs5	0.7622	0.742	0.743	0.708	0.721	0.692	0.72	0.703	0.704
0.1 µM, coculture fibroblast: Hs27A	0.822	0.794	0.802	0.794	0.789	0.875	0.784	0.78	0.705
0.1 µM, coculture fibroblast: Hs343T	0.7316	0.684	0.668	0.639	0.635	0.612	0.638	0.63	0.628
0.1 µM, coculture fibroblast: WS1	0.7985	0.7514	0.743	0.6665	0.65	0.631	0.626	0.614	0.615
1 µM, coculture fibroblast: C12385	0.8133	0.69219	0.6646	0.582	0.5283	0.4991	0.4745	0.4522	0.449
1 µM, coculture fibroblast: H6013	0.84	0.728	0.7	0.691	0.674	0.699	0.655	0.649	0.612
1 µM, coculture fibroblast: H6019	0.748	0.645	0.611	0.526	0.484	0.476	0.44	0.417	0.39
1 µM, coculture fibroblast: H6076	0.771	0.637	0.62353	0.588	0.566	0.543	0.556	0.556	0.554
1 µM, coculture fibroblast: H6231	0.803	0.715	0.651	0.587	0.547	0.51058	0.489	0.46	0.439
1 µM, coculture fibroblast: HADF	0.8156	0.729	0.704	0.667	0.656	0.673	0.614	0.606	0.555
1 µM, coculture fibroblast: HCFa	0.832	0.7071	0.694	0.66	0.633	0.645	0.579	0.567	0.516
1 µM, coculture fibroblast: HCPF	0.77	0.691	0.665	0.603	0.584	0.553	0.535	0.515	0.503
1 µM, coculture fibroblast: HHSteC	0.823	0.727	0.691	0.661	0.636	0.641	0.58	0.556	0.505
1 µM, coculture fibroblast: HMF	0.762	0.629	0.619	0.575	0.561	0.531	0.529	0.518	0.506
1 µM, coculture fibroblast: HPFa	0.875	0.797	0.776	0.734	0.718	0.728	0.651	0.633	0.563
1 µM, coculture fibroblast: HUF	0.8488	0.712	0.703	0.619	0.566	0.533	0.513	0.497	0.487
1 µM, coculture fibroblast: Hs5	0.814	0.705	0.6728	0.614	0.594	0.556	0.5576	0.52968	0.5211
1 µM, coculture fibroblast: Hs27A	0.886	0.836	0.791	0.764	0.73	0.755	0.673	0.638	0.566
1 µM, coculture fibroblast: Hs343T	0.748	0.6248	0.593	0.552	0.533	0.501	0.495	0.49	0.484
1 µM, coculture fibroblast: WS1	0.7956	0.658	0.613	0.524	0.475	0.449	0.422	0.39	0.374

Reference: the supplement of paper PMC6078165
